# Experimental data published in PubChem BioAssay AID1259415 (National Center for Advancing Translational Sciences (NCATS), 2018).
# In all, about 410,000 compounds went through this assay and about 18,000 (4.4%) were called active. Inconclusive results, whose numbers are uncertain, are shown with a selection of clear calls. Rule as the data show it: active = activity change below about -60%; inconclusive = no clear call, values can overlap the other calls; inactive = above about -39%.
# Experiment: qHTS Assay for inhibitors of the human cytomegalovirus (HCMV)
# Details: HFF cells, HCMV-luciferase reporter, 72 h; at 57.5 µM; stronger effect = lower value
# How it was run: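 HFF cells seeded 16 h at 37C, treated with compounds, infected with luciferase-reporter HCMV at MOI 1 PFU/cell; luciferase read at 72 h post infection, normalized to buffer-only and Salinomycin controls.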
# % is scaled to controls: 0 for no effect and ±100 for the full control effect.
row,Structure (SMILES),"activity change, negative = inhibition"
1,CCOC(=O)c1sc2nc(C)nc(NCc3ccc(F)cc3)c2c1C,inconclusive: -45.7%
2,CCOC(=O)N1CCN(C(=O)C2CCCN(Cc3nc(-c4ccc(Cl)cc4)oc3C)C2)CC1 (centres undefined),inconclusive: -42.7%
3,Cc1cc(=O)[nH]c(N/N=C/c2c(C)oc3ccccc23)n1,inconclusive: -46.5%
4,COc1ccccc1CC(=O)NNC(=O)c1cccs1,inactive: 65.6%
5,Cc1cccc(NS(=O)(=O)c2ccc3[nH]c4c(c3c2)CCCCCC4)c1,active: -103%
6,NC(CO)c1csc(Nc2ccc(C(F)(F)F)cn2)n1 (centres undefined),inactive: 1.28%
7,COc1cccc(CSc2nc3ccccc3cc2C=O)c1,active: -99.9%
8,CC(C)c1cc(CNC(=O)CCc2nnc(CCCCc3ccccc3)o2)on1,inactive: 26.1%
9,CCc1cccc2c1NC(=O)C2(O)N1CCCC(C)C1 (centres undefined),inactive: 0.703%
10,CCOC(=O)c1ccc(NC(=S)NC2CCCC2)cc1,inconclusive: -56.4%
11,COC(C(=O)C(O)C(C)O)C1Cc2cc3cc(OC4CC(OC5CC(O)C(O)C(C)O5)C(O)C(C)O4)c(C)c(O)c3c(O)c2C(=O)C1OC1CC(OC2CC(OC3CC(O)C(OC)C(C)O3)C(O)C(C)O2)C(O)C(C)O1 (centres undefined),active: -98.1%
12,COc1cc(CNc2ccc3[nH]c(=O)[nH]c3c2)ccc1OCc1ccc(Cl)cc1,inconclusive: -44.3%
13,S=C(NCc1ccccc1)NCc1cccc(Cl)c1,inconclusive: -50.5%
14,CCCNS(=O)(=O)c1ccc(CCC(=O)N2CCN(c3ccc(F)cc3)CC2)cc1,active: -65.4%
15,Cn1c(SCc2cc(=O)n3cc(Br)ccc3n2)nnc1C1COc2ccccc2O1 (centres undefined),inactive: 11.4%
16,O=C(CN1CCCc2ccccc21)NCCc1ccc(Cl)cc1,inconclusive: -40.7%
17,CCC(Oc1ccc(Cl)cc1)C(=O)N1CC(=O)Nc2ccccc21 (centres undefined),inconclusive: -44.2%
18,CCOc1ccccc1N(C(=O)c1snc(C(N)=O)c1N)C(C(=O)NC1CCCC1)c1ccco1 (centres undefined),inconclusive: -50.1%
19,CCC1(O)CC2CN(CCc3c([nH]c4ccccc34)C(C(=O)OC)(c3cc4c(cc3OC)N(C=O)C3C(O)(C(=O)OC)C(OC(C)=O)C5(CC)C=CCN6CCC43C65)C2)C1 (centres undefined),active: -87.8%
20,COCC(C)n1c(C)cc(C(=O)COC(=O)c2c(NC(C)=O)sc(C)c2C)c1C (centres undefined),inactive: -5.26%
21,C/C=C(\CS(=O)(=O)c1ccccc1)S(=O)(=O)c1ccccc1,inconclusive: -46.7%
22,Cc1cccc(-c2nc(CCNC(=O)Cc3ccccc3)cs2)c1,inconclusive: -55%
23,COc1ccc(CCNC(=O)c2ccc3c(c2)N(Cc2ccc(F)cc2)C(=O)CS3)cc1OC,active: -65.6%
24,Cc1ccc(C(=O)Nc2ccc3c(c2)OCCO3)cc1,inconclusive: -42.6%
25,CCOc1cc(-c2nc3n(c(=O)c2C#N)CCS3)ccc1O,inconclusive: -43.9%
26,COc1ccc2c(c1)O[C@@]1(CCCC[C@@H]1C)CC2=O,inconclusive: -40.9%
27,N#CC1CCN(C(=O)c2ccc3c(Cl)c4c(nc3c2)CCCC4)CC1,inconclusive: -52.4%

row,Structure (SMILES),"activity change, negative = inhibition"
1,CCC(=O)Nc1cccc(-c2ccc(N3CCC(C)CC3)nn2)c1,active: -67%
2,CN(C)c1ccc(/C=N/NC(=O)C(=O)/C=C2\NC3(CCCC3)Cc3ccccc32)cc1,active: -62.8%
3,Cc1ccc(-c2c(C)n([O-])c3c([n+]2=O)CCC3)o1,inconclusive: -47.4%
4,Cc1ccc2nc(NC(=O)c3ccc(Cl)s3)sc2c1,inactive: 36.5%
5,COc1cc(NC(=O)Nc2ccc(C)cc2)cc([N+](=O)[O-])c1,active: -63.5%
6,NC(=O)CC(NC(=O)Cc1cccc2ccccc12)c1ccc(NCc2ccccn2)c([N+](=O)[O-])c1 (centres undefined),inconclusive: -51.4%
7,O=c1oc2ccccc2c(Nc2ccccc2)c1CN1CCCCC1,inconclusive: -40.9%
8,O=C(Cc1ccc(F)cc1)NCc1ccc2c(c1)CCN2C(=O)c1ccc(F)cc1,inactive: 22.8%
9,Cc1cc(CN(C)C(=O)c2cc(COc3ccc4ncccc4c3)on2)on1,active: -80.4%
10,CCC(=O)Nc1ccc(NC(=O)CSc2nnc(-c3ccco3)n2C)cc1,inconclusive: -44.2%
11,Cc1ccc(CCNC(=O)c2cc3c(s2)-c2c(C)cccc2OC3)cc1,active: -86.1%
12,CCOC(=O)c1sc2nc(C)nc(N3CCCCC3C)c2c1C (centres undefined),active: -73.4%
13,C=CCNC(=S)N1CCN(CCN=Cc2c(C)[nH]n(-c3ccc([N+](=O)[O-])cc3)c2=O)CC1,inconclusive: -43.3%
14,O=C(Nc1ccc2c(c1)N(C1CCCC1)C(=O)c1ccccc1S2)c1ccccc1F,inconclusive: -51.8%
15,CCCc1nc2ccc(C)cn2c1Cc1ccc(OC)cc1C,inconclusive: -48.3%
16,CC(C)CNC(=O)C1CCN(c2ccc(S(=O)(=O)N3CCOCC3)cc2Cl)CC1,inconclusive: -43.3%
17,CCC(C)(C)n1nnnc1C(c1cccs1)N1CCc2ccccc21 (centres undefined),inconclusive: -50.8%
18,O=C(c1ccc(-c2ccccc2)cc1)C1CCCN(C(=O)c2ccncc2)C1 (centres undefined),inconclusive: -44.2%
19,C=CC(=O)N1C/C(=C/c2ccccc2)C(=O)/C(=C\c2ccccc2)C1,active: -97.1%
20,Cc1cc(C)cc(NS(=O)(=O)c2cc(C(=O)NCc3ccccn3)ccc2Cl)c1,inconclusive: -41%
21,COc1cc(C2N(Cc3ccccc3)CCN2Cc2ccccc2)ccc1OC(C)=O,inactive: 35.1%
22,COC(=O)c1c(C(=O)c2ccc(Br)cc2)n(C)c2ccccc12,inconclusive: -55.1%
23,Cc1ccccc1N=C1C(=O)Nc2ccccc21,inactive: -17.1%
24,Cc1nc(C(=O)Nc2cc(F)cc(Cl)c2)sc1C1(C)CC(c2ccccc2)=NO1 (centres undefined),inconclusive: -54.9%
25,CCSc1ccccc1C(=O)Nc1ccc(-c2nc3ccccc3s2)c(O)c1,inconclusive: -42.5%
26,Cc1ccc(-n2nc3c(=O)n(CC(=O)NCCCc4ccccc4)nc(C)c3c2C)cc1,inconclusive: -49.1%
27,COc1ccc(-c2nc(N3CCOCC3)nc3n[nH]c(N)c23)cc1,inconclusive: -59.3%
